Experimental data reported in PubChem BioAssay AID1347426 (Functional Genomics Laboratory (NCATS/FGL), 2020).
The campaign covered roughly 31,000 sequences. About 1,400 (4.5%) were called active.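 Rule for the calls: active = median seed-adjusted z-score above 1 or below -1; inactive = the rest.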 The list shows a part of the results.

Test: Novel Modifiers of Survival Motor Neuron (SMN) Protein: Gene Identification via Genome-wide siRNA Screen;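 note: luminescence tracks full-length SMN protein made from the SMN2 reporter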
Settings: HEK293T SMN2-luciferase reporter, siRNA knockdown, 72 h; actives lie on both sides
Summary of the method: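 Each of three siRNAs per gene is reverse-transfected (1 pmol) into reporter HEK293T cells whose luciferase output tracks SMN protein level. After 72 h culture, ONE-Glo luminescence is control-normalized, log10-transformed and MAD-standardized; Common Seed Analysis deprioritizes seed-driven hits.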
For CAGUUGGAGUUUGACCCAATT against MMP3, the median seed-adjusted z-score was inactive: 0.0592. In the case of CCAUCUAACCAGACAAGAATT against ERO1L, the median seed-adjusted z-score is reported as inactive: -0.251. In the case of GCUUCUCACUCAUCACUAATT against NP, the median seed-adjusted z-score is reported as inactive: -0.386. With UCCUGUGCAUUGAUCGCUATT against HRH1 the median seed-adjusted z-score was inactive: 0.204. For GAAGGUGCCUGUGCAGACATT against PRSS22, the median seed-adjusted z-score was inactive: -0.565. With GAGCAGGUGUUAUUAUGGATT against CLCN3 the median seed-adjusted z-score was inactive: -0.0801. With ACAAAAAGCUAAUACCAGUTT against SMAD6 the median seed-adjusted z-score was inactive: -0.167. With GAAAACCCUUGUAAGUAUATT against ZNF354A the median seed-adjusted z-score was inactive: 0.401. With GCACUUUAUUUGACUACUUTT against TRNT1 the median seed-adjusted z-score was inactive: 0.142. With CAGUCAAGGCGAAAGGUUUTT against SDHA the median seed-adjusted z-score was inactive: -0.103. In the case of GGGCAUGCGUGGGUUCAAATT against SCARA5, the median seed-adjusted z-score is reported as inactive: -0.278. For UCUUAUUUAUUCUACAUCCTT against TNFRSF6B, the median seed-adjusted z-score was inactive: 0.0458. With GCACCUUUGUGACCUAUGATT against KIF9 the median seed-adjusted z-score was inactive: 0. In the case of UCAUCAAUCCAAUAAUCUATT against HTR1D, the median seed-adjusted z-score is reported as inactive: -0.155. For UGGACAUUCUUGCACCCAATT against CHTF18, the median seed-adjusted z-score was inactive: 0.371. With GGACUAUAAAUCCAGCUUUTT against TOMM34 the median seed-adjusted z-score was inactive: -0.503. With CGCAGUGUGAAAUACCUAATT against BBS10 the median seed-adjusted z-score was inactive: 0.298. For CCCUGAAACUCGUCCUGUUTT against ZNHIT3, the median seed-adjusted z-score was inactive: -0.311. With AAUUAUAGAUGGGAAUGAATT against HNRNPA1 the median seed-adjusted z-score was inactive: 0.563. For CGUUGUCCAUGGUGAGGAUTT against ELA3A, the median seed-adjusted z-score was inactive: -0.0465. For GCAUGUCCGAGACACCAAATT against IL13, the median seed-adjusted z-score was inactive: 0.435. In the case of CAGUUGCAACUCUUCGUGATT against ALB, the median seed-adjusted z-score is reported as inactive: -0.153. In the case of GGAGCUUCUUGGGACCUGUTT against CD97, the median seed-adjusted z-score is reported as inactive: 0.202. With GGUUCUCUUGCAUUACUUUTT against GLP2R the median seed-adjusted z-score was inactive: 0.492. In the case of GGUUGAUAUUUGUGGUCGATT against ARF3, the median seed-adjusted z-score is reported as inactive: 0.18. In the case of CCCUAGCUGUAAUCACUAATT against DNM1L, the median seed-adjusted z-score is reported as inactive: -0.153. For CCACACCUACAAUACCUAUTT against FKBP10, the median seed-adjusted z-score was inactive: 0.229. In the case of CAUUAUCGAUACUAUGUAATT against PSMD6, the median seed-adjusted z-score is reported as active: -1.03. With GGCCUAACCAUAUGCCUAUTT against SS18 the median seed-adjusted z-score was inactive: 0.34. For GCAGGCCUCCAGCUACUAUTT against SOX8, the median seed-adjusted z-score was inactive: 0.186. With GUUGAGCCCUUGUAUAUUATT against UBE2C the median seed-adjusted z-score was inactive: 0. For CAUUAAAGCAGCUACCAAUTT against PSMC3IP, the median seed-adjusted z-score was inactive: -0.0482. For GAAUGUUCUGAAUCGCGAATT against NLRC4, the median seed-adjusted z-score was inactive: -0.00107. In the case of CCUUAGUUCUUCCUCGGAATT against PARP12, the median seed-adjusted z-score is reported as inactive: -0.287. With CUUCAGAAUGUAUACAGAATT against ACYP2 the median seed-adjusted z-score was inactive: 0.286. For GGGAGAACCUUGCUAGUGATT against LARP5, the median seed-adjusted z-score was inactive: -0.144. In the case of CGUGAUAUCCAGUUUGAUATT against ALOX5, the median seed-adjusted z-score is reported as inactive: -0.201. For GCAUCGUCAUUCCUAAUGATT against ITGB6, the median seed-adjusted z-score was inactive: -0.5. For GCCUUGCAAUUUCCGUAUATT against AOF1, the median seed-adjusted z-score was inactive: -0.211. For GGAAUUCCUUGGAUCACCATT against GLYAT, the median seed-adjusted z-score was inactive: 0.68. For GAAUCUACCGGGAAACAGATT against CHRM5, the median seed-adjusted z-score was inactive: -0.553. With GGAAAGGCGGGAACAAUAATT against PIK3R2 the median seed-adjusted z-score was inactive: 0.421. For GCAUUUUGGAGGACCAGGATT against PGLS, the median seed-adjusted z-score was inactive: 0.188. For CAAACUUAAAGGUCAGAAATT against WHSC1, the median seed-adjusted z-score was active: 1.17. With AGAUCUAAGCGGUGCGGUATT against CALCA the median seed-adjusted z-score was inactive: 0.0802. In the case of GGAUCUUAGCCUCAGAAUUTT against STK36, the median seed-adjusted z-score is reported as inactive: -0.0489. With CAUCCAUGUGGGAAACAUUTT against SMARCB1 the median seed-adjusted z-score was inactive: 0.05. With CAUCCGAGAUGUUUCCAAATT against BPHL the median seed-adjusted z-score was inactive: -0.161. With GCAAUUUCAUGGAGGACGATT against SPOCK2 the median seed-adjusted z-score was inactive: 0.967. For GACUAUCGCUAAUGAGUAUTT against HSPA4, the median seed-adjusted z-score was inactive: 0.143. With ACUUCCUGUUGGUCUACAATT against FXC1 the median seed-adjusted z-score was inactive: -0.00735. In the case of GGCUCCUAGAUGAUCGAAATT against MACF1, the median seed-adjusted z-score is reported as inactive: -0.146. For GGCUGAUAUUAACUGUCAATT against KLF1, the median seed-adjusted z-score was inactive: 0. In the case of CGGACUAACUUAUAUCGCATT against MAN1A1, the median seed-adjusted z-score is reported as inactive: 0. With GGUCUGCGAAUUUCAUAUATT against GCA the median seed-adjusted z-score was inactive: -0.162. For GGAUGUACGUUGUUACCAATT against PTPN22, the median seed-adjusted z-score was inactive: -0.0843. For GGAUUCAGGCUGCAAAGUATT against KHSRP, the median seed-adjusted z-score was inactive: -0.856. With CAAAUACGGUAAUGCUGUATT against COX7B the median seed-adjusted z-score was active: -1.16. For GAGCUUCGGUGACAGCAAATT against DNASE1L2, the median seed-adjusted z-score was inactive: -0.228. With GAUAAACAAGAUUCCCUUATT against SYT2 the median seed-adjusted z-score was inactive: 0.243. In the case of GGAGAAAGGAUCACGCUAATT against KCTD1, the median seed-adjusted z-score is reported as inactive: 0. In the case of GGCUUAUGAGAUCACGUAUTT against LAMC3, the median seed-adjusted z-score is reported as inactive: 0.394. In the case of CCUGGAAACUACAAGCCCATT against SIRT3, the median seed-adjusted z-score is reported as inactive: -0.341. In the case of GGAUCAUUGAUGGACGUGATT against STS, the median seed-adjusted z-score is reported as inactive: -0.392. For GCAUCAUCACAGAGAGGUUTT against ST8SIA5, the median seed-adjusted z-score was inactive: -0.358. In the case of AGAAUGCACCAAACAAACATT against DOLPP1, the median seed-adjusted z-score is reported as inactive: 0.00977. With UCACAUUAGGGAUACAAAATT against UQCR the median seed-adjusted z-score was inactive: 0.193. In the case of AGAAUAAAAUGGUCUGUGATT against CRABP2, the median seed-adjusted z-score is reported as inactive: 0.0092. In the case of GGCAAAGGGUAGAAGAGCATT against ANXA2, the median seed-adjusted z-score is reported as inactive: 0.499.
